Measurements: PubChem BioAssay AID493014 (National Center for Advancing Translational Sciences (NCATS), 2011)
Out of some 340,000 compounds screened, about 170 (0.05%) were called active. Inconclusive means that the source gave no clear call. Such entries were picked first, then a sample of the others. Calls come from the whole dose curve; as a rule, active = well fitted inhibition curve with a large enough effect in the signal ratio, with a control signal flat (not every such curve was filed as active); inconclusive = small, poorly fitted or top-dose-only effect, or effect the other way, or a change in a side signal; inactive = flat fitted curve, though single readings scatter; the % refers to the signal ratio. Potencies beside an inconclusive call are fits to weak or partial responses and may not hold up.

assay: qHTS Assay to Find Inhibitors of Chronic Active B-Cell Receptor Signaling; details: ABC-DLBCL IkBa-CBG/CBR reporter, luminescence ratio (green luciferase fused to IkBa over red control in TMD8 lymphoma cells), 4 h; activity change, negative = inhibition: at 46.1 µM (top of the series);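 for activity change, negative = inhibition: plate controls were basal doxycycline-induced cells for no effect and cells given 10 µM MG132 for full effect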
Outline: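 Compounds up to 46 uM were incubated four hours with TMD8 cells whose green CBG68 luciferase is fused to IkappaBalpha; red CBR luminescence normalised the signal, and concentration-effect curves were fitted to fusion, red and ratio data.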
Potency is the fitted concentration of half-maximal effect.

SMILES | Potency | activity change, negative = inhibition
Cc1ccc(Oc2ccc(S(=O)(=O)N3CCOCC3)cc2C(N)=O)c(-n2nc3ccccc3n2)c1 | inconclusive: 11.2 µM [falling, partial curve] | 
CCC(C)c1ccc(NC(=O)Nc2cnccn2)cc1 (centres undefined) |  | inconclusive: -0.954%
COc1ccc(CCNc2nc3ccccc3n3cnnc23)cc1OC | inconclusive: 17.8 µM [falling, partial curve] | 
C[C@H](NC(=O)c1ccc2ccccc2c1)C(=O)N1CCC2(CC1)NCCc1[nH]cnc12 |  | inconclusive: 1.32%
O=C1c2ccccc2NC(c2ccccc2F)N1NS(=O)(=O)c1ccccc1 (centres undefined) |  | inactive
COc1ccc(NCN2C(=O)CCC2=O)cc1 |  | inconclusive: 23.4%
O=C(Nc1ccccc1)ON=C1CCCC1 | inconclusive: 29.1 µM [falling, single point] | 
O=C(N/N=C\c1cn[nH]c1-c1ccccc1)c1ccc([N+](=O)[O-])cc1 |  | inactive
COc1cc(C(=O)N/N=C/c2cc([N+](=O)[O-])cs2)cc(OC)c1OC | inconclusive: 14.6 µM [falling, partial curve, poor fit] | 
O=C1NN(c2ccccc2)C(=O)/C1=C\c1ccccc1 |  | inconclusive: -12.1%
CCOC(=O)C(C)Oc1cccc2c(=O)n(CC(=O)NCc3ccco3)ccc12 (centres undefined) | inconclusive: 1.64 µM [falling, full curve] | 
Cc1ccc(-c2csc3nc[nH]c(=O)c23)cc1 |  | inactive
CSCc1ccc(C(=O)NCc2ccccc2)cc1 |  | inconclusive: -21.9%
CN(C)S(=O)(=O)c1cc(NC(=O)CN2CCN(c3ccccc3O)CC2)ccc1Cl |  | inactive
Cc1cccc(Nc2n[nH]c(=S)s2)c1C | inconclusive: 10 µM [falling, partial curve, poor fit] | 
O=S(=O)(NC1CCCC1)c1cccc(S(=O)(=O)N2CCC(n3nnc4ccccc43)CC2)c1 |  | inconclusive: 5.48%
Cc1ccc(S(=O)(=O)N2CCC(C(=O)OCC(=O)N3CC(=O)Nc4ccccc43)CC2)cc1 |  | inconclusive: 3%
COc1ccc(CCNC(=O)c2cc(-c3ccc(C)cc3)nc3n[nH]c(-c4ccc(F)cc4)c23)cc1OC |  | inactive
COc1cc(NC(=O)c2cc(-c3ccccc3Cl)on2)cc(OC)c1OC | inconclusive: 25.1 µM [falling, single point] | 
Cc1ccc(-n2ncc3c(NCCc4ccccc4)ncnc32)cc1Cl |  | inconclusive: 0.425%
Cc1ccc(C)c(OCCCC(=O)N2CCOCC2)c1 |  | inconclusive: 12%
O=C(CSc1nnc(CNC(=O)c2cccc(C(F)(F)F)c2)o1)NC1CCCCC1 |  | inconclusive: -3.47%
COc1ccc(NC(=O)Nc2ccc(Cc3ccncc3)cc2)c(OC)c1 |  | inactive
Cc1ccc2nc(Cl)c(C3CC(c4cccs4)=NN3C(=O)CCC(=O)O)cc2c1 (centres undefined) |  | inactive
CCC(C)NC(=O)c1ccc(N2CC3CC(C2)c2cccc(=O)n2C3)c(NC(=O)c2ccc(Br)o2)c1 (centres undefined) |  | inactive
CCc1ccc(Nc2nnc(SCC(=O)Nc3cccnc3Cl)s2)cc1 | inconclusive: 16.4 µM [falling, partial curve] | 
N#CC(C#N)=C1C=CC=CN1/C(=C\c1ccco1)C(=O)c1ccc(Cl)cc1 |  | inconclusive: -21.3%

SMILES | Potency | activity change, negative = inhibition
CCOc1ccc(C2C=C(c3ccc(F)cc3)Nc3ncnn32)cc1 (centres undefined) |  | inconclusive: 3.21%
COc1ccc([N+](=O)[O-])cc1-n1cnnn1 |  | inconclusive: 14.5%
O=C(COc1ccccc1)NC1CCCCCCC1 |  | inactive
NS(=O)(=O)c1ccc(CCNC/C=C/c2ccccc2)cc1 |  | inconclusive: -17.2%
COc1ccc(C(=O)Nc2ccccc2)cc1NC(=O)c1ccc([N+](=O)[O-])cc1 |  | inconclusive: -3.13%
O=c1c2ccccc2oc2ccc(NCCCn3ccnc3)cc12 |  | inactive
O=C(NN1CCOCC1)c1ccc(Cl)c([N+](=O)[O-])c1 |  | inconclusive: 3.28%
COc1ccc(-c2nc(-c3ccccc3)c(-c3cccs3)[nH]2)cc1OC |  | inconclusive: 7.71%
Cc1cc(=O)[nH]c(N/N=C/c2ccc(Br)s2)n1 |  | inactive
COc1cccc(NC(=O)C2CCN(Cc3cnn(-c4ccccc4)c3-n3cccc3)CC2)c1 | inconclusive: 20.6 µM [falling, single point] | 
Cn1cc(C(=O)N/N=C/C=C/c2ccccc2)ccc1=O | inconclusive: 7.31 µM [falling, partial curve, poor fit] | 
Cc1ccc2c(c1)CCCN2C(=O)CSc1ccccc1 |  | inconclusive: -0.387%
COc1ccc(/C=C2\SC(=O)N(CCCC(=O)Nc3cc(Cl)ccc3C(=O)O)C2=O)cc1 | inconclusive: 2.59 µM [falling, partial curve] | 
Cc1ccccc1Nc1nnc(SCC(=O)Nc2ccccc2[N+](=O)[O-])s1 |  | inactive
CCOc1ccc2nc(N/C(N)=N/C(=S)Nc3cccc(C)c3)nc(C)c2c1 |  | inconclusive: 6.18%
O=C(Nc1cccc(Cl)c1)c1cc(-c2ccco2)on1 | inconclusive: 31.6 µM [falling, single point] | 
Oc1ccccc1-c1nc(NCc2ccco2)c2ccccc2n1 |  | inconclusive: 7.07%
Cc1ccc(-c2cc(C(=O)Nc3cc(C)ccc3C)[nH]n2)c(O)c1 |  | inconclusive: 201%
COc1ccc([C@@]2(O)c3c(ccc(CC=C(C)C)c3O)NC(=O)[C@@H]2OC)cc1 | inconclusive: 35.5 µM [falling, partial curve, poor fit] | 
COc1cc(/C=C/C(=O)NC(C)(C)C)ccc1OCc1ccccc1 |  | inconclusive: 3.95%
CC1=NN(C(N)=S)C(=O)C1N=Nc1ccc(C)cc1C (centres undefined) |  | inactive
O=C(CC1CC2CCC1C2)N1CCN(S(=O)(=O)c2ccccc2[N+](=O)[O-])CC1 (centres undefined) |  | inconclusive: -1.39%
Nc1c(-c2cccs2)cnn1-c1nc(-c2ccc(Cl)cc2Cl)cs1 | inconclusive: 20 µM [falling, partial curve, poor fit] | 
CCOC(=O)C1CCN(S(=O)(=O)c2ccc(OC)c(Cl)c2Cl)CC1 | inconclusive: 1.16 µM [falling, full curve] | 
CCc1ccc(C2=CC(c3cccc(OC)c3OC)n3c(nc4ccccc43)N2)cc1 (centres undefined) | inconclusive: 31.6 µM [rising, single point] | 
CC1(C)CC(=O)c2sc(NS(=O)(=O)Cc3ccccc3)nc2C1 |  | inconclusive: 10.4%
CS(=O)(=O)N(Cc1ccccc1)c1ccc(C(=O)Nc2ccc3c(c2)OCO3)cc1 | inconclusive: 18.4 µM [rising, single point] | 

Some of these compounds in order of count of non-hydrogen atoms, ascending:
SMILES | Potency | activity change, negative = inhibition
COc1ccc(-c2nc(-c3ccccc3)c(-c3cccs3)[nH]2)cc1OC |  | inconclusive: 7.71%
O=C(CC1CC2CCC1C2)N1CCN(S(=O)(=O)c2ccccc2[N+](=O)[O-])CC1 (centres undefined) |  | inconclusive: -1.39%
COc1cccc(NC(=O)C2CCN(Cc3cnn(-c4ccccc4)c3-n3cccc3)CC2)c1 | inconclusive: 20.6 µM [falling, single point] | 

Following part.

SMILES | Potency | activity change, negative = inhibition
C(=N\NCc1ccccc1)/c1ccc2nccnc2c1 | inconclusive: 25.1 µM [falling, single point] | 
CCCCCC(=O)Nc1ccc(C(=O)CN2C(=O)NC3(CCCCCC3)C2=O)cc1 |  | inactive
Fc1ccccc1/C=N/Nc1ncnc2ccccc12 | inconclusive: 22.4 µM [falling, single point] | 
Cc1csc(NC(=O)c2nc(-c3ccccc3)n(-c3ccccc3)n2)n1 |  | inconclusive: -0.0536%
COc1ccc(-c2c(C)nn3c(N4CCN(Cc5ccccc5)CC4)cc(C)nc23)cc1OC | inconclusive: 32.6 µM [falling, single point] | 
Cc1ccc(C2(C)NC(=O)N(CC(=O)NCc3ccccc3Cl)C2=O)cc1 (centres undefined) |  | inactive
O=C(NC(=S)NCCc1ccccc1)c1ccccc1F | inconclusive: 35.5 µM [falling, single point] | 
O=C(O)c1ccccc1SCC(=O)N1CCOCC1 |  | inconclusive: 6.13%
NC(=S)N/N=C1/CCSc2ccc3ccccc3c21 | inconclusive: 35.5 µM [falling, partial curve, poor fit] | 
COc1ccc(NC(=O)NCc2cccn2C)c(OC)c1 | inconclusive: 25.1 µM [falling, single point] | 
CC(C)n1c(C(F)(F)F)nc2cc(C(=O)N3CCCCC3)ccc21 |  | inactive
COc1ccc(CNC(=O)C2C3C=CC4(CN(Cc5cccnc5)C(=O)C24)O3)cc1 (centres undefined) |  | inconclusive: 3.68%
O=C(Nc1ccc(F)c(Cl)c1)C1CCN(S(=O)(=O)c2cccnc2)CC1 | inconclusive: 23.1 µM [falling, partial curve, poor fit] | 
COc1ccc2c(c1)Cc1sc(NC(=O)c3ccccc3)nc1-2 |  | inconclusive: -16.1%
Cc1ccc(-c2csc(NC(=O)CSC3=NCCS3)n2)cc1 | inconclusive: 3.26 µM [falling, partial curve, poor fit] | 
CCOC(=O)c1ccc(NC(=O)c2nc[nH]c2C(=O)N[C@@H](CC(C)C)C(=O)OC(C)(C)C)cc1 |  | inactive
CCCNCc1nnc(-c2ccccc2Cl)o1 |  | inconclusive: -0.805%
CCn1c2ccccc2c2nnc(SCC(=O)Nc3c(C)n(C)n(-c4ccccc4)c3=O)nc21 |  | inconclusive: -159%
COc1ccc(CNS(=O)(=O)c2ccc(-n3cnnn3)c(C)c2)cc1 |  | inconclusive: -7.22%
CC1CCCC/C1=N\NC(=S)NCCc1ccccc1 (centres undefined) | inconclusive: 35.5 µM [falling, single point] | 
CC(C)(CCl)C(=O)Nc1ccc(Sc2ccc(F)cc2)cc1 |  | inconclusive: 16.1%
O/N=C/c1ccccc1Oc1ccc(Cl)cc1 | inconclusive: 17.8 µM [rising, single point] | 
CCOC(=O)c1cc2sccc2n1Cc1ccccc1 |  | inconclusive: 11%
COC(=O)c1cccc(CN2C(=O)SC(Nc3ccccc3)C2=O)c1 (centres undefined) |  | inconclusive: 1.22%
O=C(NNS(=O)(=O)c1ccc(Cl)cc1)c1cc(-c2ccccc2)n[nH]1 | inconclusive: 17.8 µM [falling, single point] | 
